These are yes or no findings as the source states them, for the method shown. In cells and extracts the contact can be indirect. A yes stands for co-enrichment or nearness to the bait. Other partners may have been found. Sequences can lack the tags named with a protein.
Target: T1, GFP-tagged TBC1D9 WT (human) (UniProt Q6ZT07)
T1 sequence: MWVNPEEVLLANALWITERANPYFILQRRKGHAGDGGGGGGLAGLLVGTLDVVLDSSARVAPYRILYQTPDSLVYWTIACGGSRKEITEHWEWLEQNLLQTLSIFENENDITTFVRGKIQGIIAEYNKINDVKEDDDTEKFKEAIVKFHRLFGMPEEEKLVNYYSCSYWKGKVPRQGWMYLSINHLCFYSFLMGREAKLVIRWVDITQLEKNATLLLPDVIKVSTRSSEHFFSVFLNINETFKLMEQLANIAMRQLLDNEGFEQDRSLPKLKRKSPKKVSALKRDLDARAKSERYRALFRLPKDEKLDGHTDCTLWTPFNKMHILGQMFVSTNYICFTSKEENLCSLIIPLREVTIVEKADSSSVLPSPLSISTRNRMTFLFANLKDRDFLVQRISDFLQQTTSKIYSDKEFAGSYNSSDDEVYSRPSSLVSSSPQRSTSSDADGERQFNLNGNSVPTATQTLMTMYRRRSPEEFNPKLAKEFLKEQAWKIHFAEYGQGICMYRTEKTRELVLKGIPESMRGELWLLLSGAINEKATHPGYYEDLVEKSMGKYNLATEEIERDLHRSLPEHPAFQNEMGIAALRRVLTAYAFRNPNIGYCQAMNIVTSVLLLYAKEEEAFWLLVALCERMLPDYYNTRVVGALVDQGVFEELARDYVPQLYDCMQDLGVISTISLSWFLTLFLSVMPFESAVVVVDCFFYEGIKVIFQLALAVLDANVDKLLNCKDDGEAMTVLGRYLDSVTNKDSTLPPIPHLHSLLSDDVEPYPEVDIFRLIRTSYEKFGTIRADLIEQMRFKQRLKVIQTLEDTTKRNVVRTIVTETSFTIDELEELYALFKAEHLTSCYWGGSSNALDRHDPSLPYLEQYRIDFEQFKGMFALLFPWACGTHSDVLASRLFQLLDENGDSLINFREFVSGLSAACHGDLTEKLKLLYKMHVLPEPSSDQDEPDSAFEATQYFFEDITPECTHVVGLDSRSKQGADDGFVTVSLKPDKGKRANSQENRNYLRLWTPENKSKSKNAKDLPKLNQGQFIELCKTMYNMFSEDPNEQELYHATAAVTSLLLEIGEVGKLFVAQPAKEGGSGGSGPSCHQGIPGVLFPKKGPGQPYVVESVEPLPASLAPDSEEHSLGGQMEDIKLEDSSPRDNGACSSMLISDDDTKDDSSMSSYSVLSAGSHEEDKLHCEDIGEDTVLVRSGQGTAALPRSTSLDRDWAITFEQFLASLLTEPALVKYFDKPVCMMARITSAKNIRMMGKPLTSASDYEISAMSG
Assay: affinity purification with mass spectrometry; HEK293T cells transfected with GFP, GFP-TBC1D9 or GFP-TBC1D9 R566K, 48 h, basal conditions; lysates precipitated with GFP-Trap beads; LC-MS/MS (Q-Exactive)

B1: Rab29 (protein, UniProt O14966 1-203)
chain: MGSRDHLFKVLVVGDAAVGKTSLVQRYSQDSFSKHYKSTVGVDFALKVLQWSDYEIVRLQLWDIAGQERFTSMTRLYYRDASACVIMFDVTNATTFSNSQRWKQDLDSKLTLPNGEPVPCLLLANKCDLSPWAVSRDQIDRFSKENGFTGWTETSVKENKNINEAMRVLIEKMMRNSTEDIMSLSTQGDYINLQTKSSSWSCC
With B1 the binding was “binds”.

— publication PMC12643979
